Experimental data taken from paper PMC11238352, “Combination of dual JAK/HDAC inhibitor with regorafenib synergistically reduces tumor growth, metastasis, and regorafenib-induced toxicity in colorectal cancer” (Journal of Experimental & Clinical Cancer Research : CR, 2024).

Test system: SW480 cells
Assay: Whole transcriptomic sequencing (RNA-seq)
Type: cell-based
Conditions: SW480, 500 nM, 12 h, volcano plots

CNC(=O)c1cc(Oc2ccc(NC(=O)Nc3ccc(Cl)c(C(F)(F)F)c3)c(F)c2)ccn1 [regorafenib]
Upregulated protein-coding genes vs. DMSO: 53 | downregulated protein-coding genes vs. DMSO: 24
